Earlier results as cited in patent US5110831A, “Vinylogous hydroxamic acids and derivatives thereof as 5-lipoxygenase inhibitors” (Du Pont Merck Pharmaceutical Company, priority 1990, dated 1992).
For at least one compound, name, drawing or mass did not settle the structure.

Test system: inflammatory cells such as polymorphonuclear leukocytes
Conditions: cited from earlier work

In the case of `CCCCC/C=C\C/C=C\C/C=C\C=C\[C@@H](O)CCCC(=O)O` [Example 5-HETE, 5-hydroxyeicosatetraenoic acid], the “chemotactic activity for inflammatory cells” value is listed as “potent chemotactic factors”.
